Experimental data as given in patent publication US9968659B2 (Novo Nordisk A/S, priority 2016, dated 2018).
At least one compound was matched to its structure with a doubt left.

System: adult human subjects with type 2 diabetes that were at high risk for cardiovascular events
Assay: Long-term randomised double-blind placebo-controlled cardiovascular outcomes trial of liraglutide (9340 subjects)
Type: in vivo
Details: liraglutide arm, FAS

Compound: CCCCCCCCCCCCCCCC(=O)N[C@@H](CCC(=O)NCCCC[C@H](NC(=O)[C@H](C)NC(=O)[C@H](C)NC(=O)[C@H](CCC(N)=O)NC(=O)CNC(=O)[C@H](CCC(=O)O)NC(=O)[C@H](CC(C)C)NC(=O)[C@H](Cc1ccc(O)cc1)NC(=O)[C@H](CO)NC(=O)[C@H](CO)NC(=O)[C@@H](NC(=O)[C@H](CC(=O)O)NC(=O)[C@H](CO)NC(=O)[C@@H](NC(=O)[C@H](Cc1ccccc1)NC(=O)[C@@H](NC(=O)CNC(=O)[C@H](CCC(=O)O)NC(=O)[C@H](C)NC(=O)[C@@H](N)Cc1cnc[nH]1)[C@@H](C)O)[C@@H](C)O)C(C)C)C(=O)N[C@@H](CCC(=O)O)C(=O)N[C@@H](Cc1ccccc1)C(=O)N[C@H](C(=O)N[C@@H](C)C(=O)N[C@@H](Cc1c[nH]c2ccccc12)C(=O)N[C@@H](CC(C)C)C(=O)N[C@H](C(=O)N[C@@H](CCCNC(=N)N)C(=O)NCC(=O)N[C@@H](CCCNC(=N)N)C(=O)NCC(=O)O)C(C)C)[C@@H](C)CC)C(=O)O [Liraglutide, Arg34,Lys26-(N-epsilon-(gamma-L-glutamyl(N-alfa-hexadecanoyl)))-GLP-1(7-37)]
- Coronary revascularisation, %: 8.7%
- Hospitalisation for UAP, %: 2.6%
- Hospitalisation for heart failure, %: 4.7%
